Test system: male Syrian Golden Hamsters
Conditions: Days −3 to 28
Method: Twenty-four (24) male Syrian Golden Hamsters were used in the study. Mucositis was induced by giving an acute radiation dose of 40 Gy directed to the left buccal cheek pouch on Day 0. Mucositis was evaluated clinically starting on Day 6 and continuing on alternate days until Day 28.
Mucositis was scored visually by comparison to a validated photographic scale, ranging from 0 for normal, to 5 for severe ulceration (clinical scoring). In descriptive terms, this scale is defined as described in Table 7 below: […]
A mucositis score of 3 or greater indicates ulcerative mucositis, a clinically significant threshold.
Statistical significance of observed differences was calculated using chi-squared analysis.
An analysis of the severity of mucositis was performed using the Mann-Whitney rank sum analysis to compare the visual mucositis scores for Groups 2 and 3 to the vehicle control group (Group 1) on each day of the analysis. In this analysis, 2 consecutive days of significant reduction in the mucositis score are generally required before it is regarded as clinically meaningful.
The significance of group differences observed in daily mucositis scores was determined using the Mann-Whitney rank sum test. This nonparametric statistic is appropriate for the visual mucositis scoring scale. The p-values for each calculation are shown. “x” denotes significant difference in mucositis scores. […]

How did the “percent body weight change” value turn out when `Cc1c(-c2cnccn2)ssc1=S` [Neat oltipraz, 4-methyl-5-(pyrazin-2-yl)-3H-1,2-dithiole-3-thione] was run?
The value was “gained weight at a slower rate than those administered placebo”.

Source: patent publication US20210052580A1 (ST IP Holding AG, priority 2018, published 2021)
